Source: paper PMC4552727
No constants are given. Whether binding was seen depends on the method and setting. Binding seen in cells or lysates may run through a third protein. Some results given as binding are weak or reduced against the parent protein; the word gives no strength.

Sequences of proteins named here, by UniProt entry; tags and fusion partners are left off.
UniProt B2RWS6: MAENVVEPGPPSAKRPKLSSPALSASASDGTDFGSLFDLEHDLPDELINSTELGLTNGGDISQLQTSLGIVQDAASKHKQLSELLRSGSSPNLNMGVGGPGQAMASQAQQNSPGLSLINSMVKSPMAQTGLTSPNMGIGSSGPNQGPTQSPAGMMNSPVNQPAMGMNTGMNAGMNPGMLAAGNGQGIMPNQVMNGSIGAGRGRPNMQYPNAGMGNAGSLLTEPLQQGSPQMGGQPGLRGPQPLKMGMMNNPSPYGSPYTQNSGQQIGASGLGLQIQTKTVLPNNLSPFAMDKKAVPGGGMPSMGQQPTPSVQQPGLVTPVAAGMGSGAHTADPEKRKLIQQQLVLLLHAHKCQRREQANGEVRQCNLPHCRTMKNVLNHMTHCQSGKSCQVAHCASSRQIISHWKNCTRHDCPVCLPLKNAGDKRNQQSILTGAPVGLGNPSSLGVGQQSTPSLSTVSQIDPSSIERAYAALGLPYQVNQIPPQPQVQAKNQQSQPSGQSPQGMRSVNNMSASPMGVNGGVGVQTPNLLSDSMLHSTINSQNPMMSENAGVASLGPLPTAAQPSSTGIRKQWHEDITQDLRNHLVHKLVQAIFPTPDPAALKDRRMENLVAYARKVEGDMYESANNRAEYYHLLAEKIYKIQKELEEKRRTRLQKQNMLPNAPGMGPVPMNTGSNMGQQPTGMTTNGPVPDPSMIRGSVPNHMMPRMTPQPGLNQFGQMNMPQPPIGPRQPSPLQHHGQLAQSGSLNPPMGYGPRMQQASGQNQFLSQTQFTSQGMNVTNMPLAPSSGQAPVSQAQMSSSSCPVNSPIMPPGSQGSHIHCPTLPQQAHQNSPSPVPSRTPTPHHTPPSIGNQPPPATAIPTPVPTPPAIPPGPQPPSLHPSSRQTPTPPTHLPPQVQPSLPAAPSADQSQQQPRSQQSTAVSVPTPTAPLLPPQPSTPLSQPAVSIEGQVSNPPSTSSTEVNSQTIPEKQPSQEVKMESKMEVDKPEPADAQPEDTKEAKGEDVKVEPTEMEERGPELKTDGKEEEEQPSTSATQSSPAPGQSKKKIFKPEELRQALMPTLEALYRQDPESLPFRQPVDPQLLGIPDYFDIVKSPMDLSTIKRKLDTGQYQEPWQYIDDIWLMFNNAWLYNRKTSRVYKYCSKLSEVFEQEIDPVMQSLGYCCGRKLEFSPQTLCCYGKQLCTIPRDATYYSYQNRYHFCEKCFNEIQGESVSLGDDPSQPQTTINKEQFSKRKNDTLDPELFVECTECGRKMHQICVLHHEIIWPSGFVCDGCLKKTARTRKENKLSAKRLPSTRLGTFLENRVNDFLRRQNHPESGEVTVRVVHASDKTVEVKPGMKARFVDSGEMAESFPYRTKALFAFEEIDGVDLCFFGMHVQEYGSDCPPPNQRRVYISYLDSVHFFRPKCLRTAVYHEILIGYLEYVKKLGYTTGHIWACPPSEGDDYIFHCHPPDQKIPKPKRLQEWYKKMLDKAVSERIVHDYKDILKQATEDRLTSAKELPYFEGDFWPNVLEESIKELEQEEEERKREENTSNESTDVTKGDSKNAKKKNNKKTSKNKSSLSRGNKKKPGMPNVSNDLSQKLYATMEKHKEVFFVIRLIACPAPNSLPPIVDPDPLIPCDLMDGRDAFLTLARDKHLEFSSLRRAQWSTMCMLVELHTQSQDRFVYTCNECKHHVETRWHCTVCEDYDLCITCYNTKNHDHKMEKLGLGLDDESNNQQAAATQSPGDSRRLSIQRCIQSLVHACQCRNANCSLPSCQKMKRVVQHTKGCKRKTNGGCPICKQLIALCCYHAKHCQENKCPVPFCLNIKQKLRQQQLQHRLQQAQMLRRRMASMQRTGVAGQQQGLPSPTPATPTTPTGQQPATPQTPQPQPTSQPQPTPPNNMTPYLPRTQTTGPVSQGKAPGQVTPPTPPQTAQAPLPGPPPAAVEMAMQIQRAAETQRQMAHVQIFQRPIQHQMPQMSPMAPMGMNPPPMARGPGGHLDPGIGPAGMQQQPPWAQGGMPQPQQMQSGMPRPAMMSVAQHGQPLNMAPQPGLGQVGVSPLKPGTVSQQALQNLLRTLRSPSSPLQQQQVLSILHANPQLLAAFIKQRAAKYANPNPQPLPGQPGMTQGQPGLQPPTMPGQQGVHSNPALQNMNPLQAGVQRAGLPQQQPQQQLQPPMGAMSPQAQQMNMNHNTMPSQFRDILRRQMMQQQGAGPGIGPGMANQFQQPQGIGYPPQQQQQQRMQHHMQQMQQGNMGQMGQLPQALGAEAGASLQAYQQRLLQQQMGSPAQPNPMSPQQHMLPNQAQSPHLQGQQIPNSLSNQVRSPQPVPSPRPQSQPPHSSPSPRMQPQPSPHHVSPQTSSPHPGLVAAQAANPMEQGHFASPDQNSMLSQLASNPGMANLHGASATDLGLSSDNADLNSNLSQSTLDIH
UniProt O55003: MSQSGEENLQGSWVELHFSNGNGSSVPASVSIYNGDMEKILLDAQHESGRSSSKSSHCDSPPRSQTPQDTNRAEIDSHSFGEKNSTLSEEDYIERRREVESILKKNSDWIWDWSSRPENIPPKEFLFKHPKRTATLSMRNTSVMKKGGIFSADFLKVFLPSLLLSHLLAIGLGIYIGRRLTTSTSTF
UniProt Q08369: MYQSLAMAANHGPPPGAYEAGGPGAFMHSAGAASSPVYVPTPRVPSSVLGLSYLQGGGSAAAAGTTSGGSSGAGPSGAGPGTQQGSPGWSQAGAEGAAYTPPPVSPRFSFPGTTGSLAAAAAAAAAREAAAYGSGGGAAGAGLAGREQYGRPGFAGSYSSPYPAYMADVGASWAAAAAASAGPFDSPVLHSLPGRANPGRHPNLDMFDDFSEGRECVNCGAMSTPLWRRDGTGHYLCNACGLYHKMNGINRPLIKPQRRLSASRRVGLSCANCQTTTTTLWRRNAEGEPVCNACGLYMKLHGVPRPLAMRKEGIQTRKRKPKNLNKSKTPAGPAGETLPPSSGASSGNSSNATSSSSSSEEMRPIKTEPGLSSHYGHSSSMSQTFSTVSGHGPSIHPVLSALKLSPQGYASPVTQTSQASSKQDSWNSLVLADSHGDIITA
UniProt Q921J2: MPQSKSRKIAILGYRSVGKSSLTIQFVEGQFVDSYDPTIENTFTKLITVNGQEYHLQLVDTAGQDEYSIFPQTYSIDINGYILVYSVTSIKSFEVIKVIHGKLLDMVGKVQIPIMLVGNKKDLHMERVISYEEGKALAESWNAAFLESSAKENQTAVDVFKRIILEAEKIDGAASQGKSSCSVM

How the values were obtained:
[1] = target: p300 histone acetyltransferase, endogenous in mouse heart (mouse (endogenous in mouse heart)) (UniProt B2RWS6); assay: co-IP; p300 immunoprecipitated from hearts of wild type, Bnip3-TG, and Bnip3-TG mice treated with vehicle or curcumin; western blot for GATA4
[2] = target: p300 histone acetyltransferase, endogenous in mouse heart (mouse (endogenous in mouse heart)) (UniProt B2RWS6); assay: co-IP; reciprocal immunoprecipitation of p300 and GATA4 from nuclear lysates of wild type and Bnip3-TG mouse hearts, western blot
[3] = target: Bnip3 in mouse heart (endogenous in wild type, overexpressed from the α-MHC promoter transgene in Bnip3-TG) (not stated (transgene cDNA); mouse (endogenous in wild type mouse heart)) (UniProt O55003); assay: co-IP; reciprocal Bnip3 and Rheb immunoprecipitation from myocardial lysates of Bnip3-TG and wild type mice, western blot

| Substance | binding [1] | binding [2] | binding [3] |
| --- | --- | --- | --- |
| GATA4 transcription factor, endogenous in mouse heart (from UniProt Q08369 1-441) | binds | binds | – |
| Rheb (Ras homolog enriched in brain), endogenous in mouse heart (from UniProt Q921J2 1-184) | – | – | binds |
